Measurements: the supplement of paper PMC8732350
Values joined by “and” are separate entries in the source; they are usually repeats but may differ in a detail not shown here. Equal entries are not always repeated. Structures can show the parent of a compound that is named as a salt. ± gives the standard deviation of the averaged measurements. Some of the results follow. This data set is noisy: repeats of one test often differ as much as different tests do.

What follows are compounds tested on A549 (assay: surface PD-L1 immunofluorescence intensity relative to IFN-gamma-only control (ratio); higher = more PD-L1 expression). Settings: 10 µM; exposure time 24 h; IFN-gamma 100 ng/mL.

| SMILES | surface PD-L1 immunofluorescence intensity |
| --- | --- |
| CC1CCc2c(N3CCC(O)CC3)c(F)cc3c(=O)c(C(=O)O)cn1c23 (centres undefined) [Nadifloxacin] | 0.975 |
| Clc1ccc(CCCOCCCN2CCCCC2)cc1 | 0.929 |
| Nc1nc(=O)c2c([nH]1)NC[C@H](CNc1ccc(C(=O)N[C@@H](CCC(=O)O)C(=O)O)cc1)N2C=O [Calcium levofolinate (Calcium Folinate)] | 1.05 |
| COc1cc(N)c(Cl)cc1C(=O)CCC1CCN(CCNS(C)(=O)=O)CC1 | 0.95 |
| NCCc1cc[nH]n1 [Betazole hydrochloride] | 0.839 |
| CCCNC(C)C(=O)Nc1c(C)csc1C(=O)OC (centres undefined) [Articaine hydrochloride] | 1.02 |
| COc1cccc(N(C)C(=S)Oc2ccc3c(c2)CCCC3)n1 [Liranaftate] | 1.07 |
| CC(=O)C1=C(O)C=C2Oc3c(C(C)=O)c(O)c(C)c(O)c3C2(C)C1=O (single isomer, unassigned; (+)) [(+)-Usniacin (D-Usnic acid)] | 1.03 |
| Cc1cnc(-c2cnc(NCCNc3ccc(C#N)cn3)nc2-c2ccc(Cl)cc2Cl)[nH]1 | 1.23 and 1.21 |
| Cc1c(NC(C)C)c(=O)n(-c2ccccc2)n1C [Isopyrin hydrochloride] | 1.03 |
| COc1ccc2c(c1)C(=O)N(CCc1ccc(S(=O)(=O)NC(=O)NC3CCCCC3)cc1)C(=O)C2(C)C [Gliquidone] | 0.986 |
| C=CCc1ccc(O)c(-c2cc(CC=C)ccc2O)c1 [Magnolol] | 1.08 |
| CC(=N)NCc1cccc(CN)c1 [1400W dihydrochloride] | 0.967 |
| NS(=O)(=O)Cc1noc2ccccc12 [Zonisamide] | 0.946 ± 0.085 |
| CC(C)c1cccc(=O)c(O)c1 [Hinokitiol] | 0.881 |
| CN(C)CCN(Cc1ccc(Cl)cc1)c1ccccn1 [Chloropyramine hydrochloride] | 1.01 |
| C[C@H](NC[C@H](O)CP(=O)(O)Cc1ccccc1)c1ccc(Cl)c(Cl)c1 | 1.04 |
| O=C1NC(=O)c2cc(Nc3ccc(F)cc3)c(Nc3ccc(F)cc3)cc21 | 0.992 |
| Cc1cn([C@H]2C[C@H](N=[N+]=[N-])[C@@H](CO)O2)c(=O)[nH]c1=O [Zidovudine, AZT] | 1.2 |
| COc1ccc([C@@H]2Sc3ccccc3N(CCN(C)C)C(=O)[C@@H]2OC(C)=O)cc1 [Diltiazem hydrochloride] | 1 ± 0.1 |
| Cc1c(NC(=O)OC[C@@H]2COCCN2)cn2ncnc(Nc3ccc4c(cnn4Cc4cccc(F)c4)c3)c12 | 0.915 |
| NCCC(O)(P(=O)(O)O)P(=O)(O)O [Pamidronate Disodium] | 1.01 |
| CC(C[N+](C)(C)C)OC(N)=O (centres undefined) [Bethanechol chloride] | 1.08 |
| CC(C)C[C@H](NC(=O)N[C@H](C(=O)N[C@@H](CCC(N)=O)C(=O)N[C@@H](C)C=O)[C@@H]1CCNC(=N)N1)C(=O)O [Elastatinal] | 0.88 |
| NC(=O)c1ccc[n+]([C@@H]2O[C@H](COP(=O)([O-])OP(=O)(O)OC[C@H]3O[C@@H](n4cnc5c(N)ncnc54)[C@H](O)[C@@H]3O)[C@@H](O)[C@H]2O)c1 [Nadide] | 1.07 |
| CC(C)[C@H](NS(=O)(=O)c1ccc(-c2ccc(Br)cc2)cc1)C(=O)O | 1.04 |
| NCC(=O)CCC(=O)O [5-Aminolevulinic acid HCl] | 1.09 |

| SMILES | surface PD-L1 immunofluorescence intensity |
| --- | --- |
| O=C(Nc1ccccc1)N[C@@H]1C[C@@H](C(=O)O)Nc2cc(Cl)cc(Cl)c21 | 1.1 |
| O=C(O)C[C@H](O)C[C@H](O)/C=C/c1c(C2CC2)nc2ccccc2c1-c1ccc(F)cc1 [Pitavastatin calcium (Livalo)] | 1.17 |
| O=c1[nH]c2cc(Cl)ccc2c(O)c1-c1cccc(Oc2ccccc2)c1 | 0.97 |
| Cc1ccc(C)c(OCCCC(C)(C)C(=O)O)c1 [Gemfibrozil] | 1.03 ± 0.014 |
| COc1cc2c(cc1OC)[C@@H]1Cc3ccc(OC)c(OC)c3CN1CC2 [Rotundine] | 0.797 |
| O=C(CCCN1CCC(O)(c2ccc(Cl)cc2)CC1)c1ccc(F)cc1 [Haloperidol hydrochloride] | 1.07 |
| O=C(CCCN1CCC(O)(c2ccc(Cl)cc2)CC1)c1ccc(F)cc1 [Haloperidol] | 0.971 |
| C[C@]12CCC(=O)C=C1C=C[C@@H]1[C@@H]2CC[C@@]2(C)[C@H]1CC[C@@]21CCC(=O)O1 [Canrenone] | 0.917 |
| CC1(C)[C@@H](O)CC[C@]2(C)[C@H]3C(=O)C=C4[C@@H]5C[C@@](C)(C(=O)O)CC[C@]5(C)CC[C@@]4(C)[C@]3(C)CC[C@@H]12 [Enoxolone (Glycyrrhetin)] | 1.04 |
| C[C@H]1COC2(CCN(c3nc(=O)c4cc(C(F)(F)F)cc([N+](=O)[O-])c4s3)CC2)O1 (racemic) [BTZ043 racemate] | 1.03 |
| CC1(C)S[C@@H]2[C@H](NC(=O)[C@H](N)c3ccccc3)C(=O)N2[C@H]1C(=O)OC1OC(=O)c2ccccc21 (some centres undefined) [Talampicillin hydrochloride] | 1.05 |
| O=C(O)c1ccc(-n2nc(-c3ccccc3O)nc2-c2ccccc2O)cc1 [Deferasirox (Exjade)] | 0.995 |
| COC(=O)CCc1ccc(OCC(O)CNC(C)C)cc1 (centres undefined) [Esmolol hydrochloride] | 1.04 |
| COCCOC(=O)C1=C(C)NC(C)=C(C(=O)OC(C)C)C1c1cccc([N+](=O)[O-])c1 (centres undefined) [Nimodipine] | 1.03 ± 0.1 |
| CN1C(C(=O)Nc2ccccn2)=C(O)c2ccccc2S1(=O)=O [Piroxicam] | 0.96 ± 0.066 |
| COc1ccc2c3c1O[C@H]1C[C@@H](O)C=C[C@@]31CCN(C)C2 [Galanthamine hydrobromide] | 1.05 ± 0.048 |
| Cc1cc(F)c(Nc2ncnc3cc(OCc4ccccc4)ccc23)cc1O | 1.08 and 1.04 |
| Cc1nnc(SCC2=C(C(=O)O)N3C(=O)[C@@H](NC(=O)Cn4cnnn4)[C@H]3SC2)s1 [Cefazolin sodium salt] | 0.984 |
| CCCCc1nc2ccn(Cc3cccs3)c(=O)c2n1Cc1ccc(-c2ccccc2-c2nn[nH]n2)cc1 | 0.875 |
| c1cc(CN2CCCNCCNCCCNCC2)ccc1CN1CCCNCCNCCCNCC1 [Plerixafor 8HCl (AMD3100 8HCl)] | 1.04 |
| CC(C)NC(=N)NC(=N)Nc1ccc(Cl)cc1 [Proguanil hydrochloride] | 0.991 |
| CC(C)n1cnc2c(NCCc3ccc(O)cc3)nc(-c3csc4ccccc34)nc21 [StemRegenin 1] | 1.01 |
| Cc1nc2c(O)cccc2c(=O)[nH]1 | 0.954 |
| C=C[C@@](C)(/C=C/c1ccc(O)cc1)CCC=C(C)C [Bakuchiol] | 0.892 |
| CCCOc1ccc(Br)cc1-c1cc(-c2ccc(Cl)cc2)[nH]c1-c1ccncc1 | 0.934 |
| CN(Cc1ccc(C(C)(C)C)cc1)Cc1cccc2ccccc12 [Butenafine Hydrochloride] | 1.15 |
| N=C(CC(O)COc1ccccc1-c1ccccc1)N1CCCCC1 (centres undefined) | 1.1 |

Exported bar-delimited: part of the list above
SMILES | surface PD-L1 immunofluorescence intensity
Cc1ccc(C)c(OCCCC(C)(C)C(=O)O)c1 [Gemfibrozil] | 1.03 ± 0.014
C[C@]12CCC(=O)C=C1C=C[C@@H]1[C@@H]2CC[C@@]2(C)[C@H]1CC[C@@]21CCC(=O)O1 [Canrenone] | 0.917
COCCOC(=O)C1=C(C)NC(C)=C(C(=O)OC(C)C)C1c1cccc([N+](=O)[O-])c1 (centres undefined) [Nimodipine] | 1.03 ± 0.1
Cc1cc(F)c(Nc2ncnc3cc(OCc4ccccc4)ccc23)cc1O | 1.08 and 1.04

The list continues.

| SMILES | surface PD-L1 immunofluorescence intensity |
| --- | --- |
| CCCCCCCCNC(C)C(O)c1ccc(SC(C)C)cc1 (centres undefined) [Suloctidil] | 1.01 |
| CC(=O)CC(c1ccc([N+](=O)[O-])cc1)c1c(O)c2ccccc2oc1=O (centres undefined) [Acenocoumarol] | 0.921 |
| S=c1[nH]cnc2nc[nH]c12 [Mercaptopurine] | 1.01 ± 0.065 |
| NS(=O)(=O)c1ccc(NC(=O)Nc2ccc(F)cc2)cc1 | 0.936 |
| COc1cc2c(cc1OC)-c1c/c(=N\c3c(C)cc(C)cc3C)n(C)c(=O)n1CC2 [Trequinsin hydrochloride] | 0.884 |
| Cc1cccc(Nc2ccncc2S(=O)(=O)NC(=O)NC(C)C)c1 [Torsemide] | 1.02 |
| O=C(c1ccc(F)cc1)N1CCC[C@H](c2nc(-c3ccc(F)cc3)no2)C1 | 1.05 |
| O=C1Nc2ccc(I)cc2/C1=C/c1cc(Br)c(O)c(Br)c1 | 0.977 and 0.964 |
| O=C1N=C(O)NC1(c1ccccc1)c1ccccc1 [Phenytoin sodium (Dilantin)] | 1.01 |
| CC[N+](CC)(CC(=O)Nc1c(C)cccc1C)Cc1ccccc1 [Denatonium benzoate] | 0.963 |
| COc1cc(NS(=O)(=O)c2ccc(N)cc2)nc(OC)n1 [Sulfadimethoxine] | 1.03 |
| CC1(C)O[C@@H]2[C@@H](CO[C@@]3(COS(N)(=O)=O)OC(C)(C)O[C@@H]23)O1 [Topiramate] | 1 ± 0.021 |
| CN(C)c1cc(NC(=O)CNC(C)(C)C)c(O)c2c1C[C@H]1C[C@H]3[C@H](N(C)C)C(O)=C(C(N)=O)C(=O)[C@@]3(O)C(O)=C1C2=O [Tigecycline] | 1.09 |
| CCNc1nc(Nc2cc(F)c(C(=O)N3CCOCC3)cc2OC)ncc1C(F)(F)F | 0.974 |
| CC(C)Cn1cnc2c(N)nc3ccccc3c21 [Imiquimod] | 0.995 ± 0.039 |
| Clc1cccc(Nc2nnc(-c3ccccc3)c3ccccc23)c1 | 1 |
| NC(=O)N1c2ccccc2CC(=O)c2ccccc21 [Oxcarbazepine] | 0.966 |
| Oc1nc(-c2ccc(C(F)(F)F)cc2)nc2c1CSCC2 | 1.02 and 0.897 |
| O=S(=O)(c1cccc2c(Cl)cccc12)N1CCCNCC1 [ML 9 hydrochloride] | 0.98 |
| CC1(C)CC(=O)C(C2C3=C(CC(C)(C)CC3=O)Oc3ccccc32)C(=O)C1 (centres undefined) | 1.02 |
| CN1CC(=O)N=C1NC(=O)Nc1cccc(Cl)c1 [Fenobam] | 0.902 |
| CCOCCn1c(N2CCCN(C)CC2)nc2ccccc21 [Emedastine] | 1.13 |
| CC[C@H](C)C(=O)O[C@H]1C[C@H](O)C=C2C=C[C@H](C)[C@H](CC[C@@H](O)C[C@@H](O)CC(=O)O)[C@H]21 [Pravastatin] | 1.12 |
| CC[C@H](C)C(=O)O[C@H]1C[C@H](O)C=C2C=C[C@H](C)[C@H](CC[C@@H](O)C[C@@H](O)CC(=O)O)[C@H]21 [Pravastatin sodium salt] | 0.95 |
| CC[C@H](C)C(=O)O[C@H]1C[C@H](O)C=C2C=C[C@H](C)[C@H](CC[C@@H](O)C[C@@H](O)CC(=O)O)[C@H]21 [Pravastatin sodium] | 0.949 |
